Experimental data: PubChem BioAssay AID2685 (National Center for Advancing Translational Sciences (NCATS), 2010)
The other results are listed elsewhere or left out. The main result of the screen is listed elsewhere. These columns were measured beside it and carry no call. Most of these compounds were active or inconclusive in the main read-out, so they are no random draw. Potencies come from curve fits of mixed quality, noted in brackets.

Assay: qHTS Assay for Lipid Storage Modulators in Drosophila S3 Cells;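 as to cell number change: cells counted by Cell Tracker Red CMTPX staining in the red channel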
Details: BODIPY lipid droplet fluorescence, 18-24 h; for cell number change: measured here: cell count max response, cells fed with added oleic acid
Summary of the method: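 Laser-scanning cytometry quantifies lipid droplet accumulation (500–530 nm total intensity; droplet/cell object ratio) in oleic acid-fed (400 uM added) Drosophila S3 cells treated with a concentration series. 20 uM Triacsin C defined 100% inhibition.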

[1] = measured here: cell number channel AC50, cells fed with added oleic acid
[2] = measured here: lipid fluorescence (Fed channel) AC50, cells fed with added oleic acid

Row | SMILES | cell number change [%] | AC50 [1] | AC50 [2]
1 | O=C(NCc1cccnc1)c1c[nH]c2cc3c(cc2c1=O)OCCO3 | -60 | 11600 nM [falling, partial curve, poor fit] | 32600 nM [falling, single point]
2 | COc1ccc(C2Nc3ccccc3C(=O)N2Cc2ccco2)cc1COc1ccc([N+](=O)[O-])cc1 (stereo not given) | 3.35 | 731 nM [falling, partial curve, poor fit] | –
3 | CCOc1ccc2nc(NC(=O)C3CCN(S(=O)(=O)c4cnc[nH]4)CC3)sc2c1 | 10.4 | – | 103 nM [rising, full curve, poor fit]
4 | O=C(CSc1nc2ccccc2c(=O)[nH]1)Nc1ccc(C(=O)O)cc1 | -59.7 | 1640 nM [falling, partial curve] | 1460 nM [falling, partial curve]
5 | CCOC(=O)CSc1nc2ccccc2n1CC(=O)N1CCN(c2ccccc2)CC1 | -13.5 | – | 651 nM [falling, partial curve, poor fit]
6 | Cc1ccc(C(=O)N2N=C(CC(C)C)CC2(O)C(F)(F)F)o1 (stereo not given) | 38.9 | – | –
7 | CCOC(=O)N1CCN(S(=O)(=O)N2CCCC(C(=O)NCc3ccc(OC)cc3OC)C2)CC1 (stereo not given) | -13.2 | – | –
8 | Cc1nn(CC(O)Cn2cnc3c2c(=O)n(C)c(=O)n3C)c(C)c1Br (stereo not given) | -6.68 | – | 1030 nM [falling, full curve, poor fit]
9 | CC(C)(C)C1C/C(=C/c2ccco2)C(=O)/C(=C/c2ccco2)C1 (stereo not given) | – | – | 11600 nM [falling, partial curve]
10 | COc1ccc(NC(=O)CCCn2c(=O)c3sccc3n(Cc3ccccc3C)c2=O)cc1 | 24.5 | – | –
11 | CCNC(=S)N1CCC(n2cnc3ccccc32)CC1 | -29.9 | – | –
12 | CN(C)S(=O)(=O)c1cc(NC(=O)CN2CCOCC2)ccc1Cl | 1.94 | 2060 nM [falling, partial curve] | –
13 | O=C(CN1CCN(S(=O)(=O)c2ccc(Cl)c(Cl)c2)CC1)N1CCCC1 | -14.9 | 461 nM [falling, full curve, poor fit] | 130 nM [falling, full curve, poor fit]
14 | Oc1ccc(Cl)cc1CNCc1ccc(F)c(F)c1 | 2.05 | – | 5.17 nM [rising, full curve, poor fit]
15 | O=C(N/N=C/c1ccco1)c1cc(-c2ccc3ccccc3c2)n[nH]1 | -92.7 | 18400 nM [falling, single point] | 6510 nM [rising, single point]
16 | COc1cc(CCC(=O)OCC(=O)Nc2ccc3c(c2)OCO3)cc(OC)c1OC | – | – | 29100 nM [rising, partial curve, poor fit]

Given as a markdown table: entries from further up.

| Row | SMILES | cell number change [%] | AC50 [1] | AC50 [2] |
| --- | --- | --- | --- | --- |
| 12 | CN(C)S(=O)(=O)c1cc(NC(=O)CN2CCOCC2)ccc1Cl | 1.94 | 2060 nM [falling, partial curve] | – |
| 13 | O=C(CN1CCN(S(=O)(=O)c2ccc(Cl)c(Cl)c2)CC1)N1CCCC1 | -14.9 | 461 nM [falling, full curve, poor fit] | 130 nM [falling, full curve, poor fit] |
